Source: PubChem BioAssay AID504774 (Drosophila RNAi Screening Center, 2011)

Screen: 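Fly genes whose loss alters survival after alkylation damage to DNA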 (primary screen)
System: Drosophila Kc167 cells
Reagent: long dsRNA against Drosophila genes, about 0.25 µg dsRNA per well
Time to read-out: about 6 days: 3 days knock-down, then 3 days with or without MMS
Treatment: methyl methanesulphonate 0.004% (w/v) for 3 days after knock-down
Detection: 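Viability in wells given MMS, read as ATP luminescence, normalised by quantiles plate by plate and averaged across replicates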
Scale: mean viability with MMS: higher = more surviving cells after MMS
In all, the deposit lists about 23,000 reagents; this is an unselected part of those with a known target gene and a result. 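Values are quantile-normalised luminescence on an arbitrary scale; higher means more cells surviving MMS.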 Names joined by + are all predicted targets of the reagent. Further read-outs or replicates are left out here.

Target gene	dsRNA	mean viability with MMS
wfs1	DRSC15676	3.71e6
Nadsyn	DRSC20222	3.60e6
CG11703	DRSC14356	3.68e6
CG33177	DRSC19949	3.59e6
Dbp45A	DRSC07395	3.51e6
CG1824	DRSC19796	3.47e6
CG13185	DRSC06310	3.50e6
Or23a	DRSC00767	3.42e6
CG3760	DRSC04415	1.82e6
stum	DRSC04268	3.61e6
stum	DRSC04270	3.64e6
mrva	DRSC11009	3.58e6
mrva	DRSC21842	3.34e6
dwg	DRSC18766	3.49e6
CG17328	DRSC01927	3.44e6
CG17328	DRSC22448	3.73e6
tkv	DRSC00860	3.40e6
tkv	DRSC03623	3.55e6
tkv	DRSC22606	3.55e6
CG17196	DRSC15189	3.65e6
AGO3	DRSC21386	3.47e6
Tak1	DRSC20390	3.64e6
Tak1	DRSC20561	3.50e6
Tak1	DRSC20562	3.65e6
CG10208	DRSC14211	3.47e6
grp + CG31782 (retired record)	DRSC03541	3.44e6
Rap1	DRSC08686	3.53e6
Atg6	DRSC15798	3.64e6
CG14036	DRSC02361	3.55e6
CG15144	DRSC02445	3.51e6
EMC8-9	DRSC04380	3.56e6
CG32801	DRSC17964	3.60e6
TFAM	DRSC15552	3.62e6
CG11291	DRSC04097	3.36e6
okr	DRSC00834	3.51e6
Prosalpha6	DRSC03401	3.12e6
Fas2	DRSC17308	3.55e6
Fas2	DRSC17309	3.67e6
Fas2	DRSC18664	3.35e6
CG7945 + yellow-k	DRSC10851	3.44e6
Arfip	DRSC15179	3.47e6
CG31832	DRSC22067	3.81e6

5 consecutive reagents already listed, for reference:
Target gene	dsRNA	mean viability with MMS
stum	DRSC04268	3.61e6
stum	DRSC04270	3.64e6
mrva	DRSC11009	3.58e6
mrva	DRSC21842	3.34e6
dwg	DRSC18766	3.49e6

Next reagents:
Target gene	dsRNA	mean viability with MMS
CG13564	DRSC04201	3.73e6
flz	DRSC07109	3.60e6
CG4892	DRSC01937	3.55e6
sa	DRSC11649	3.59e6
CG13244	DRSC21642	3.44e6
bic	DRSC07584	3.51e6
hppy	DRSC07014	3.52e6
hppy	DRSC07015	3.55e6
hppy	DRSC07016	3.53e6
CG15914	DRSC19739	3.40e6
Taf10b	DRSC00792	3.36e6
CG17567 (retired record)	DRSC02627	3.72e6
CG17567 (retired record)	DRSC22537	3.67e6
Tektin-C	DRSC09741	3.22e6
Cenp-C	DRSC14371	3.21e6
CG13775	DRSC02279	3.59e6
CG11409	DRSC18579	3.23e6
CG17147	DRSC10249	3.38e6
Rtnl2	DRSC12609	3.65e6
Rtnl2	DRSC21655	3.54e6
CG17325 + CG42305	DRSC02602	3.65e6
CG32198	DRSC09553	3.29e6
GLS	DRSC07261	3.47e6
CG32537	DRSC20073	3.62e6
CG31230	DRSC22130	3.55e6
CG15221	DRSC19659	3.74e6
